From patent US20190055553

Tested on: PRC2 (EZH2/SUZ12/EED) (Homo sapiens)
Assay: EMSA
Details: estimated; 50 mM Tris pH 8.0, 100 mM NaCl, 5 mM MgCl2, 50 ng/ml yeast tRNA, 30 C; 2 nM RNA; purified recombinant protein; label: 5'-32P

## UCCCCUAAACAAAGACGAGGUCUUGCUAUGUUGCCCAGACUGGUCUCAAACUCCUGAGCUCAAGUGAUCCUCCUGCCUCAGCCUUCUAAAAUGCCGGGAUUACAGGCAUGAGCCACUGUACCUGGCCUUAAAUUUCUUAACAUAGCUAGCAUUUGGAGAAAACCAACCAAUAACAACAAAAGACCAACAAAAUUAAAUUUAACGAGGACGAAAAGACAGCAAGUGACAUAAAAAGUUUAAACAUUUUGAUUUAGACUAUGUAUCUGUUCCACUAUGAAGCUAUGAGUAAAAAAAAAAAAUCAAGCAUAAAUACUUUCAUGCUUUUCCUUAAUACACACACACACACACACACACACACAGCUCACAUAGCAUUUCGAGGGCGAUUUUAAGUAAAUGUCUUGGGUAGAACACCUGUUCUAACCCCAUCCCAAUACACAGUAU
  binding result: binds

The exact form of at least one protein or probe is not confirmed.
